Test results: patent publication US20030082175A1
These are yes or no findings as the source states them, for the method shown. Some entries that bind do so weakly or less than the wild type.

Sequences of proteins named here, by UniProt entry; tags and fusion partners are left off. Residues count along the entry.
UniProt Q9WU72, residues 127-309: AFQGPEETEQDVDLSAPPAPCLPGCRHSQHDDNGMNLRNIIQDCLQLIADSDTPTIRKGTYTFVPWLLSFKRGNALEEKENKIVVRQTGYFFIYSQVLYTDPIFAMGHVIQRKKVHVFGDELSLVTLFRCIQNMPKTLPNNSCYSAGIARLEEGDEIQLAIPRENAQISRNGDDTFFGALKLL
UniProt Q9Y275, residues 136-285: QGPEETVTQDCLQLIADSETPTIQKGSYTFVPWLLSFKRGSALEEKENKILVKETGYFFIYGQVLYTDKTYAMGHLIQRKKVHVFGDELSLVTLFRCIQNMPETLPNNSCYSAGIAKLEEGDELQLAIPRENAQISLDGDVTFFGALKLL

Experiments:
[1] = molecular target: human BCMA-hIgG Fc fusion protein (human APRIL-R-hIgGFc, pJST538) (human); assay: BIAcore, hBCMA-Ig on CM5 chip, ligand injected at 30 ug/ml
[2] = molecular target: human BCMA-hIgG Fc fusion protein (human APRIL-R-hIgGFc, pJST538) (human); assay: ELISA, receptor-Fc coated, FLAG-tagged ligand detected with anti-FLAG M2
[3] = molecular target: human BCMA-hIgG Fc fusion protein (human APRIL-R-hIgGFc, pJST538) (human); assay: immunoprecipitation from conditioned media with ProtG-Sepharose, anti-FLAG M2 blot

| Substance | binding [1] | binding [2] | binding [3] |
| --- | --- | --- | --- |
| FLAG-mBAFF (from UniProt Q9WU72 127-309) (ligand) | binds |  |  |
| FLAG-hBAFF (from UniProt Q9Y275 136-285) (ligand) | binds | binds | binds |
